Assay results taken from the supplement of paper PMC9233669.
This sample is rich in variants without activity.

Columns and labels:
biotinyl-Trp-oxazolone = experiment: self-aminoacylation, catalytic enhancement (BWO) (fold over background); higher = more active; k-Seq, kA / k0A0; sequences stand for … in GGGAAUGGAUCCACAUCUACGAAUUC…UUCACUGCAGACUUGACGAAGCUG
Procedure, shortened: (§1)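 Mutagenized RNA pools with a 21-nt variable region (0.43 μM) were reacted with each biotinyl-aminoacyl-oxazolone at 2–1250 μM for 90 minutes at room temperature, in 50 μL HEPES/NaCl/KCl/MgCl2/CaCl2 buffer containing 5% acetonitrile at pH 6.9–7.0. RNA captured on streptavidin was quantified by triplicate qPCR and by Illumina sequencing. The fraction reacted for each sequence was fit to a pseudo-first-order model with bootstrapping, and catalytic enhancement is the median kA divided by the uncatalyzed rate, taken as the low-activity peak of a bimodal Gaussian fit.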

biotinyl-Leu-oxazolone = experiment: self-aminoacylation, catalytic enhancement (BLO) (fold over background); higher = more active; k-Seq, kA / k0A0; sequences stand for … in GGGAAUGGAUCCACAUCUACGAAUUC…UUCACUGCAGACUUGACGAAGCUG
Procedure, shortened: as §1

biotinyl-Val-oxazolone = experiment: self-aminoacylation, catalytic enhancement (BVO) (fold over background); higher = more active; k-Seq, kA / k0A0; sequences stand for … in GGGAAUGGAUCCACAUCUACGAAUUC…UUCACUGCAGACUUGACGAAGCUG
Procedure, shortened: as §1

biotinyl-Ile-oxazolone = experiment: self-aminoacylation, catalytic enhancement (BIO) (fold over background); higher = more active; k-Seq, kA / k0A0; sequences stand for … in GGGAAUGGAUCCACAUCUACGAAUUC…UUCACUGCAGACUUGACGAAGCUG
Procedure, shortened: as §1

biotinyl-Met-oxazolone = experiment: self-aminoacylation, catalytic enhancement (BMO) (fold over background); higher = more active; k-Seq, kA / k0A0; sequences stand for … in GGGAAUGGAUCCACAUCUACGAAUUC…UUCACUGCAGACUUGACGAAGCUG
Procedure, shortened: as §1

biotinyl-Phe-oxazolone = experiment: self-aminoacylation, catalytic enhancement (BFO) (fold over background); higher = more active; k-Seq, kA / k0A0; sequences stand for … in GGGAAUGGAUCCACAUCUACGAAUUC…UUCACUGCAGACUUGACGAAGCUG
Procedure, shortened: as §1

Row | Sequence | self-aminoacylation (biotinyl-Trp-oxazolone) | self-aminoacylation (biotinyl-Leu-oxazolone) | self-aminoacylation (biotinyl-Val-oxazolone) | self-aminoacylation (biotinyl-Ile-oxazolone) | self-aminoacylation (biotinyl-Met-oxazolone) | self-aminoacylation (biotinyl-Phe-oxazolone)
1 | AUUAUCCUGGUCAUAGAGUGA [Fam2.1 aminoacylation ribozyme variant] | 11.7 | 10.1 | 4.11 | 4.58 | 9.86 | 59
2 | AUUAUCCUGGUCAUCGAGUGG [Fam2.1 aminoacylation ribozyme variant] | 4.05 | 5.03 | 2.27 | 2.19 | 5.06 | 6.09
3 | AUUCAACUAUGUCAUCGGGUG [Fam2.2 aminoacylation ribozyme variant] | 4.57 | 6.15 | 2.45 | 3.08 | 4.78 | 33.1
4 | AUUCACACAGGUCAUCGGGUG [Fam2.2 aminoacylation ribozyme variant] | 5.26 | 7.14 | 4.47 | 4.03 | 5.6 | 39.6
5 | AUUCACCAAGGUCAUCGGGUA [Fam2.2 aminoacylation ribozyme variant] | 4.89 | 3.23 | 3.04 | 3.77 | 2.43 | 22.5
6 | AUUCACCCUGGUCAUCGGGUG [Fam2.2 aminoacylation ribozyme variant] | 10.6 | 11.5 | 5.5 | 5.16 | 10.6 | 71
7 | AUUCACCGAGGUGAUCGGGUG [Fam2.2 aminoacylation ribozyme variant] | 3.05 | 6.59 | 4.15 | 3.8 | 4.75 | 29.6
8 | AUUCACCGAUGUCAUCGGGUG [Fam2.2 aminoacylation ribozyme variant] | 7.35 | 10.8 | 4.63 | 5.59 | 8.67 | 62.7
9 | AUUCACCUACGUCAACGGGUG [Fam2.2 aminoacylation ribozyme variant] | 2.84 | 3.09 | 1.64 | 1.6 | 2.35 | 9.97
10 | AUUCACCUAGAUCAUCGGGUC [Fam2.2 aminoacylation ribozyme variant] | 0.676 | 0.742 | 0.844 | 0.889 | 0.839 | 0.334
11 | AUUCACCUAGCUCAUCGUGUG [Fam2.2 aminoacylation ribozyme variant] | 0.512 | 0.769 | 0.698 | 0.587 | 0.74 | 0.582
12 | AUUCACCUAGGACAUCCGGUG [Fam2.2 aminoacylation ribozyme variant] | 4.47 | 6 | 6.22 | 7.62 | 5.98 | 31
13 | AUUCACCUAGGAUAUCGGGUG [Fam2.2 aminoacylation ribozyme variant] | 5.47 | 7.35 | 3.64 | 3.31 | 6.65 | 44.1
14 | AUUCACCUAGGCCAUCAGGUG [Fam2.2 aminoacylation ribozyme variant] | 0.695 | 1.2 | 1.09 | 1.29 | 1.37 | 0.936
15 | AUUCACCUAGGGCAUCGUGUG [Fam2.2 aminoacylation ribozyme variant] | 0.529 | 0.708 | 0.729 | 0.742 | 0.813 | 0.773
16 | AUUCACCUAGGUAAGCGGGUG [Fam2.2 aminoacylation ribozyme variant] | 2.31 | 2.75 | 1.48 | 1.9 | 2.73 | 14.3
17 | AUUCACCUAGGUCACCGUGUG [Fam2.2 aminoacylation ribozyme variant] | 1.24 | 1.48 | 1.33 | 1.13 | 1.33 | 4.55
18 | AUUCACCUAGGUCAGCAGGUG [Fam2.2 aminoacylation ribozyme variant] | 0.93 | 1.2 | 1.21 | 1.2 | 1.41 | 1.04
19 | AUUCACCUAGGUCAUCAGGUU [Fam2.2 aminoacylation ribozyme variant] | 0.326 | 0.783 | 0.86 | 0.885 | 0.863 | 0.535
20 | AUUCACCUAGGUCAUCCGGAG [Fam2.2 aminoacylation ribozyme variant] | 1.72 | 1.3 | 1.42 | 1.4 | 1.15 | 0.862
21 | AUUCACCUAGGUCAUCGGACG [Fam2.2 aminoacylation ribozyme variant] | 0.685 | 0.707 | 0.744 | 0.617 | 0.698 | 0.655
22 | AUUCACCUAGGUCAUCGGGUC [Fam2.2 aminoacylation ribozyme variant] | 1.5 | 1.9 | 1.6 | 1.38 | 1.69 | 1.93
23 | AUUCACCUAGGUCAUCGUAUG [Fam2.2 aminoacylation ribozyme variant] | 0.207 | 0.553 | 0.737 | 0.593 | 0.503 | 0.528
24 | AUUCACCUAGGUCAUUGGAUG [Fam2.2 aminoacylation ribozyme variant] | 0.349 | 0.541 | 0.546 | 0.605 | 0.56 | 0.531
25 | AUUCACCUAGGUCUUCGGGUG [Fam2.2 aminoacylation ribozyme variant] | 4.38 | 5.48 | 3.71 | 3.33 | 4.46 | 27.4
26 | AUUCACCUAGGUGGUCGGGUG [Fam2.2 aminoacylation ribozyme variant] | 3.42 | 4.09 | 2.77 | 2.49 | 2.41 | 18.3

Row | Sequence | self-aminoacylation (biotinyl-Trp-oxazolone) | self-aminoacylation (biotinyl-Leu-oxazolone) | self-aminoacylation (biotinyl-Val-oxazolone) | self-aminoacylation (biotinyl-Ile-oxazolone) | self-aminoacylation (biotinyl-Met-oxazolone) | self-aminoacylation (biotinyl-Phe-oxazolone)
27 | AUUCACCUAGGUUAGCGGGUG [Fam2.2 aminoacylation ribozyme variant] | 3.43 | 2.9 | 2.22 | 2.55 | 2.98 | 19.7
28 | AUUCACCUAGUUCAGCGGGUG [Fam2.2 aminoacylation ribozyme variant] | 2.62 | 3.34 | 2.28 | 2.07 | 2.76 | 15.9
29 | AUUCACCUCGGUCAUCGUGUG [Fam2.2 aminoacylation ribozyme variant] | 0.839 | 1.1 | 1.09 | 0.786 | 0.955 | 3.14
30 | AUUCACCUGGAUCAUCGGGUG [Fam2.2 aminoacylation ribozyme variant] | 3.31 | 3.12 | 3.08 | 2.55 | 2.39 | 15.1
31 | AUUCACGUAGGUCAACGGGUG [Fam2.2 aminoacylation ribozyme variant] | 4.47 | 4.96 | 3.15 | 2.77 | 3.95 | 21.1
32 | AUUCACGUAGGUCAUUGGGUG [Fam2.2 aminoacylation ribozyme variant] | 4 | 5.11 | 4 | 3.18 | 4.43 | 25.2
33 | AUUCACUUAGGUAAUCGGGUG [Fam2.2 aminoacylation ribozyme variant] | 2.72 | 3.33 | 1.97 | 1.7 | 3.11 | 19.6
34 | AUUCACUUAGGUCAUCAGGUG [Fam2.2 aminoacylation ribozyme variant] | 1.57 | 1.68 | 1.26 | 1.23 | 1.52 | 1.49
35 | AUUCAGCUACGUCAUCGGGUG [Fam2.2 aminoacylation ribozyme variant] | 3.07 | 2.71 | 2.02 | 1.9 | 1.98 | 10.1
36 | AUUCAGCUAGGUCGUCGGGUG [Fam2.2 aminoacylation ribozyme variant] | 3.08 | 3.24 | 2.62 | 2.53 | 3.24 | 13.1
37 | AUUCAGGUAGGUCAUCGGGUG [Fam2.2 aminoacylation ribozyme variant] | 5.12 | 5.83 | 4.23 | 3.68 | 4.59 | 30.7
38 | AUUCAUCUAUGUCAUCGGGUG [Fam2.2 aminoacylation ribozyme variant] | 6.27 | 8.74 | 3.8 | 4.09 | 6.63 | 50.7
39 | AUUCCCCUGGUAAUCGAGUGA [Fam2.1 aminoacylation ribozyme variant] | 7.35 | 5.9 | 3.28 | 3.09 | 6.36 | 37.7
40 | AUUCUCCUAGGUCAUCUGGUG [Fam2.2 aminoacylation ribozyme variant] | 4.16 | 5.43 | 2.91 | 3.03 | 4.5 | 30
41 | AUUGCCCUGGACAUCGAGUGA [Fam2.1 aminoacylation ribozyme variant] | 5.92 | 5.58 | 3.11 | 2.41 | 5.71 | 24.8
42 | AUUGCCCUGGUCGUCGAGUGA [Fam2.1 aminoacylation ribozyme variant] | 1.41 | 1.34 | 1.35 | 1.13 | 1.57 | 8.62
43 | AUUUACCUAGGUCAUCGGUUG [Fam2.2 aminoacylation ribozyme variant] | 1.07 | 0.797 | 0.939 | 0.824 | 1.08 | 0.656
44 | AUUUACGUAGGUCAUCGGGUG [Fam2.2 aminoacylation ribozyme variant] | 3.64 | 3.68 | 3.38 | 2.88 | 3.99 | 25.2
45 | AUUUCCCUGGUAAUCGAGUGA [Fam2.1 aminoacylation ribozyme variant] | 9.31 | 8.19 | 4.01 | 3.84 | 7.89 | 57.7
46 | AUUUCCCUGGUCAUCGAGUAA [Fam2.1 aminoacylation ribozyme variant] | 2.37 | 2.52 | 1.83 | 1.56 | 2.39 | 3.9
47 | AUUUCCCUGGUCAUCGAGUCA [Fam2.1 aminoacylation ribozyme variant] | 0.598 | 0.944 | 1.11 | 1.01 | 0.846 | 0.887
48 | AUUUCCCUGGUGAUCGAGUGA [Fam2.1 aminoacylation ribozyme variant] | 6.58 | 5.66 | 3.15 | 2.77 | 5.5 | 44.4
49 | AUUUUUGCUAAUAGUCGCAAG [Fam3.1 aminoacylation ribozyme variant] | 1.02 | 0.994 | 1.02 | 1.37 | 1.07 | 1.71
50 | CAACACUUCAAGCAAUAGGUC [Fam1B.1 aminoacylation ribozyme variant] | 0.591 | 0.512 | 0.72 | 0.707 | 0.616 | 1.06
51 | CAACACUUCAAGCAAUCGAUC [Fam1B.1 aminoacylation ribozyme variant] | 0.721 | 0.584 | 0.658 | 0.615 | 0.462 | 1.62
